Experiments:
[1] = general procedure: Fmoc solid-phase peptide synthesis
[2] = general procedure: Fmoc solid-phase peptide synthesis; 2-Chlorotrityl chloride resin; conditions: whole synthesis, TFA salt

Thr-Lys-Pro-Arg-Gly-Tyr-PC
difficulty met ([1]; conjugation step, TFA salt): this synthetic approach results in very low yield | crude purity (method not given) ([1]; whole synthesis, TFA salt): 88% | isolated yield ([1]; whole synthesis, from compound 10, TFA salt): 51% from 10% | crude yield [2]: 63%
